# Results published in PubChem BioAssay AID1347075 (National Center for Advancing Translational Sciences (NCATS), 2019).
# Hit rate of the full screen: of about 400,000 compounds, about 5,500 (1.4%) were called active. Inconclusive means that the source gave no clear call. Such entries were picked first, then a sample of the others. Calls come from the whole dose curve; as a rule, active = well fitted cell-killing curve with a large enough effect; inconclusive = small, poorly fitted or top-dose-only effect, or effect the other way; inactive = flat fitted curve, though single readings scatter. A potency beside an inconclusive call is a rough fit, not a confirmed value.
# Experiment: qHTS assay for MDR1-selective chemotherapeutics: Primary screen using the parental adenocarcinoma cell KB-3-1; note: nearly all actives have a fitted effect of over 60% in size
# Conditions: KB-3-1 viability, CellTiter-Glo ATP luminescence, 72 h; activity change, negative = cytotoxic: at 46.1 µM (top of the series)
# How it was run: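 Cytotoxicity measured as CellTiter-Glo luminescence after 72 h at 37 C. Compound titrations were pinned onto drug-naive KB-3-1 parental adenocarcinoma cells grown in DMEM with 10% FBS, and normalized data fitted to concentration-response curves.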
# % is set by controls: 0 for no effect and ±100 for the full control effect; potency is the fitted concentration of half-maximal effect.
Structure (SMILES),Potency,"activity change, negative = cytotoxic"
CCC(C)Sc1nc2c(c(=O)[nH]c(=O)n2C)n1CC(O)COc1ccccc1C (centres undefined),"inconclusive: 18.4 µM [cytotoxic, single point]",
c1ccc2c(N3CCCCC3)nc(N3CCCCC3)nc2c1,"inconclusive: 23.1 µM [cytotoxic, single point]",
CC1(C)N=C(SCC(=O)Nc2ccc(Cl)cc2)C(c2ccc(Cl)cc2)=N1,"inconclusive: 29.1 µM [cytotoxic, single point]",
CCCCN(Cc1cc2ccccc2[nH]c1=O)C(=O)c1cccc(Cl)c1,inactive,
O=C(NCc1cccnc1)c1cc(Sc2cccc(Cl)c2)nc2ccccc12,"inconclusive: 25.9 µM [cytotoxic, partial curve, poor fit]",
O=C(Nc1nccs1)c1cncc(Br)c1,"inconclusive: 2.06 µM [rising, full curve]",
O=C(NCc1ccccc1)N1CCN(c2ccccc2F)CC1,"inconclusive: 20.6 µM [cytotoxic, single point]",
NNC(=O)c1cc2sccc2s1,"inconclusive: 25.9 µM [cytotoxic, partial curve, poor fit]",
CCOc1ccc(OCCn2c(SCC(=O)O)nc3ccccc32)cc1,"inconclusive: 25.9 µM [cytotoxic, single point]",
CC(C)(C)c1ccc(Oc2nc3ccccn3c(=O)c2/C=C(\C#N)c2nc3ccccc3s2)cc1,inactive,
C=CCN1C(C(=O)c2ccccc2)=C(OC(=O)COc2ccccc2)c2ccccc2S1(=O)=O,"inconclusive: 18.4 µM [cytotoxic, single point]",
CN(c1ccccc1)S(=O)(=O)c1cccc(C(=O)NNC(=O)c2ccccc2)c1,active: 20.6 µM,
CCOC(=O)c1sc(NC(=O)Nc2ccccc2Cl)cc1C,"inconclusive: 16.4 µM [cytotoxic, single point]",
Cc1nc2ccc(Nc3nc(Nc4c(C)cc(C=CC#N)cc4C)nc4nc[nH]c34)cc2s1,"inconclusive: 32.6 µM [cytotoxic, partial curve, poor fit]",
Clc1ccc2c(N/N=C/c3ccccc3Br)ccnc2c1,"inconclusive: 29.1 µM [cytotoxic, single point]",
CC1=NN(C(N)=S)C(=O)C1N=Nc1c(Br)cc(Br)cc1Br (centres undefined),,inconclusive: -31.6% [cytotoxic]
Cc1ccc(NC(=O)c2ccc(C(C)(C)C)cc2)cc1-n1cnnn1,"inconclusive: 29.1 µM [cytotoxic, single point]",
CCN1/C(=C/c2sc(-c3ccccc3C)c[n+]2C)Sc2ccccc21,active: 0.411 µM,
COc1ccc(-n2c(-c3ccc(Br)cc3)nc(=S)c3c2CCCC3)cc1,"inconclusive: 18.4 µM [cytotoxic, single point]",
COc1ccc2nc(NC(=O)c3cccc(OCc4c(C)noc4C)c3)sc2c1,active: 18.4 µM,
COc1ccccc1-c1cc(NC(C)=O)c2ncc(-c3cccc(C(C)=O)c3)n2c1,"inconclusive: 29.1 µM [cytotoxic, single point]",
Cc1ccc(S(=O)(=O)Nc2ccc3nc(C)sc3c2)c(C)c1,"inconclusive: 29.1 µM [cytotoxic, single point]",

Structure (SMILES),Potency,"activity change, negative = cytotoxic"
CC(C)(C)c1ccc(Cc2n[nH]c(=S)[nH]c2=O)cc1,inactive,
CCN(CC)CCNc1nc2c(c(=O)[nH]c(=O)n2C)n1CC(O)COc1ccc(Cl)cc1Cl (centres undefined),inactive,
Cc1ccc(NC(=O)CN2C(=O)CSc3ccc(S(=O)(=O)N4CCCCC4)cc32)cc1,inactive,
CCOC(=O)c1c(NC(=O)C(NCCN(C)C)c2ccccc2)sc2c1CCCC2 (centres undefined),"inconclusive: 29.1 µM [cytotoxic, single point]",
Cc1cnc(C(=O)Nc2ccc(OC(F)(F)F)cc2)cn1,active: 14.6 µM,
O=C(Cn1ncc2ccccc21)N1CCN(c2cccc(C(F)(F)F)c2)CC1,,inconclusive: -29%
CCC(O)(CC)C(=O)N/N=C/c1cc(Br)cc(Br)c1O,"inconclusive: 29.1 µM [cytotoxic, single point]",
CCCCOc1cccc(C(=O)Nc2ccc(N3CCN(CC)CC3)cc2)c1,"inconclusive: 20.6 µM [cytotoxic, single point]",
CCOC(=O)c1c(C)[nH]c(C)c1S(=O)(=O)N(C)CC(=O)NCc1ccc(F)cc1,inactive,
Clc1ccc(N2CCN(c3ccnc(Cl)n3)CC2)cc1,inactive,
O=C(Cc1cccs1)NNC(=S)NC(=O)c1ccccc1,"inconclusive: 16.4 µM [cytotoxic, partial curve]",
CC(C)CN1C(=O)C(=O)N(CC(=O)c2ccc[nH]2)C1=O,"inconclusive: 25.9 µM [rising, single point]",
COc1ccc(NC(=O)C(NC(=O)c2ccc(=O)[nH]c2)c2ccccc2)cc1 (centres undefined),"inconclusive: 13 µM [rising, partial curve, poor fit]",
CCCN(CCC)CCCNC(=O)Cn1ncc2c3ccccc3n(Cc3ccccc3F)c2c1=O,inactive,
CN(Cc1ccccc1)C1=CC(=[N+]2CCCCC2)CC(C)(C)C1,"inconclusive: 0.517 µM [cytotoxic, full curve, poor fit]",
COc1ccc(-c2cc(C(=O)N3CCN(c4ccccc4)CC3)c3ccccc3n2)cc1OC,inactive,
CCOC(=O)c1ccc(NC(=O)c2ncn3c2C(=O)NC[C@@H]3C)cc1,inactive,
CCOC(=O)c1c(C)[nH]c(C(=O)OCC(=O)NCc2ccc(OC)c(OC)c2)c1C,"inconclusive: 3.66 µM [cytotoxic, partial curve, poor fit]",
CCn1c(=O)c(C(C)=O)c(O)c2ccccc21,"inconclusive: 23.1 µM [rising, single point]",
CC(C)(C)C(=O)NC(=S)NNC(=O)c1ccc(-c2ccccc2)cc1,"inconclusive: 2.06 µM [cytotoxic, full curve]",
N#CC1=C(N)N2C(=C(C#N)C1c1cccc(Br)c1)Nc1ccccc12 (centres undefined),"inconclusive: 13 µM [cytotoxic, partial curve, poor fit]",
COc1ccc(C2=NN(C(C#N)c3ccc(OC)cc3)C(c3ccccc3)C2)cc1 (centres undefined),active: 23.1 µM,

# As a working copy, some entries already given.
Structure (SMILES),Potency,"activity change, negative = cytotoxic"
CCOC(=O)c1c(C)[nH]c(C(=O)OCC(=O)NCc2ccc(OC)c(OC)c2)c1C,"inconclusive: 3.66 µM [cytotoxic, partial curve, poor fit]",
CCn1c(=O)c(C(C)=O)c(O)c2ccccc21,"inconclusive: 23.1 µM [rising, single point]",
